Several values for one entry are separate records, joined by “and”; a condition that tells them apart may be missing. Identical values can stand only once. About 3,700 (1.2%) of roughly 300,000 compounds were called active. Inconclusive means that the source gave no clear call. Such entries were picked first, then a sample of the others. Calls follow the shape of the full dose curve; tested in HEK293 cells. Where the call is inconclusive, the potency comes from a doubtful curve fit.
Experiment: qHTS for Inhibitors of binding or entry into cells for Lassa Virus; also: nearly all actives have a fitted effect of over 50% in size
Settings: Lassa virus pseudotype entry inhibition, cell reporter; activity change, negative = inhibition: at 37.9 µM (top of the series) unless noted
In the case of `O=C(Nc1ccccc1Cl)c1cc(=O)c2ccccc2o1`, the Potency is reported as “inactive”. For `COC(=O)c1ccc(NC(=O)C2CCN(C(=O)c3ccc(F)cc3)CC2)cc1`, the Potency was “inactive”. With `CC1(c2ccccc2)NC(=O)N(CC(=O)Nc2ccc(Cl)c(S(=O)(=O)N3CCCCC3)c2)C1=O` (centres undefined) the Potency was inconclusive: 10 µM [inhibitor, partial curve]. For `N#CC1=C(N)N(c2ccc(F)cc2)C2=C(C1c1ccc(O)cc1)S(=O)(=O)CC2` (centres undefined), the Potency was “inactive”. In the case of `NS(=O)(=O)c1ccc(CCNCc2ccccc2OCc2ccc(Cl)cc2)cc1`, the Potency is reported as inconclusive: 35.5 µM [inhibitor, partial curve, poor fit]. For `COC(=O)[C@H]1O[C@@H](c2cc(OC)c(C)c(OC)c2OCc2ccccc2)[C@H](C)[C@H]2O[C@@]12C`, the Potency was “inactive and inconclusive: 4.73 µM [inhibitor, partial curve, poor fit]”. For `O=C1CCCCCN1Cc1nnc(SCc2nc3ccccc3s2)n1-c1ccccn1`, the Potency was “inactive”. With `CCOC(=O)c1ccc(NC(=O)CC2NCCNC2=O)cc1` (centres undefined) the Potency was inconclusive: 12.6 µM [activator, single point]. With `CCOC(=O)C1CCN(S(=O)(=O)c2ccc3c(c2)NC(=O)C(C)C(=O)N3)CC1` (centres undefined) the Potency was inconclusive: 6.31 µM [activator, partial curve, poor fit]. With `Cc1ccc(-c2ccc(=O)n(CC(=O)NCc3ccc(F)cc3)n2)cc1` the Potency was inconclusive: 11.2 µM [inhibitor, partial curve, poor fit]. In the case of `CC(C)N1CCc2c(sc(NC(=O)c3nc4ccccc4s3)c2C(N)=O)C1`, the Potency is reported as inconclusive: 0.708 µM [inhibitor, partial curve, poor fit]. In the case of `CCOc1ccc(C(C)=O)cc1CN1C(=O)NC2(CCCCCC2)C1=O`, the Potency is reported as “inactive”. In the case of `FC(F)(F)c1nc2ccccc2n2c(-c3ccc(Cl)cc3)nnc12`, the Potency is reported as inconclusive: 35.5 µM [inhibitor, single point]. For `CC1=C(C(=O)OCCCCCl)C(c2cc3c(cc2Br)OCO3)NC(=O)N1` (centres undefined), the Potency was “inactive”. In the case of `CCOc1ccc(CCNC(=O)CCNC(=O)c2ccco2)cc1OCC`, the Potency is reported as inconclusive: 11.2 µM [activator, single point]. For `O=C(Cn1cnc2c(nnn2-c2ccc(F)cc2)c1=O)NCc1ccco1`, the Potency was “inactive”. With `O=c1c2ccccc2nc(-c2ccoc2)n1-c1ccccc1Cl` the Potency was inconclusive: 16.4 µM [inhibitor, partial curve, poor fit]. For `C=CCc1c(C)nc(SC)nc1Nc1ccc(C)cc1`, the Potency was inconclusive: 0.73 µM [inhibitor, full curve, poor fit]. For `O=C(c1ccc(Cl)c(Cl)c1)c1cnc(Nc2ccccc2)s1`, the Potency was inconclusive: 23.1 µM [activator, single point]. For `NC(=S)N/N=C/c1ccc(C(F)(F)F)cc1`, the Potency was inconclusive: 6.51 µM [inhibitor, partial curve, poor fit]. In the case of `O=c1c2[nH]c3ccccc3c2nc(SCc2cccc(F)c2)n1-c1ccccc1`, the Potency is reported as inconclusive: 12.6 µM [inhibitor, partial curve, poor fit]. In the case of `CC(=O)N1CCN(c2ccc(NCc3ccccc3)cc2)CC1`, the Potency is reported as “inactive”. With `O=C(NC(=S)NNC(=O)c1cccs1)c1ccco1` the Potency was “inactive”. For `N#CC(=C1C=CC(=NO)C(Cl)=C1)c1ccc(Cl)cc1`, the Potency was inconclusive: 15.8 µM [inhibitor, single point]. In the case of `Cc1nnc2ccc(-c3cccc(NC(=O)c4ccc(Br)o4)c3)nn12`, the Potency is reported as inconclusive: 8.91 µM [inhibitor, partial curve, poor fit]. For `COc1ccccc1C(=O)NCC(=O)Nc1ccccc1`, the Potency was inconclusive: 3.55 µM [activator, partial curve, poor fit]. For `CCCCCC(O)c1cccc(OCc2ccc3ccccc3n2)c1` (centres undefined), the activity change, negative = inhibition was inconclusive: -56.6% [inhibitor]. In the case of `CCOc1ccc(Nc2cc3n(c(=O)n2)CCc2cc(OC)c(OC)cc2-3)cc1`, the Potency is reported as active: 11.2 µM. For `CC(C)C1C(=O)N(Cc2cn(CCC3OCCCO3)nn2)CCS(=O)(=O)N1Cc1ccc(-c2ccccc2)cc1` (centres undefined), the Potency was inconclusive: 2.81 µM [inhibitor, single point]. For `COc1ccc(CN(CCC(c2ccccc2)C2CCOC(C)(C)C2)C(C)=O)cc1` (centres undefined), the Potency was inconclusive: 29.1 µM [inhibitor, single point]. In the case of `C/C(=N\NC(=O)c1cccc([N+](=O)[O-])c1)c1cccc(NC(=O)C2CC2)c1`, the Potency is reported as “inactive”. For `COCCn1nnnc1C(c1cc2c(C)cc(C)cc2[nH]c1=O)N1CCCCCC1` (centres undefined), the Potency was inconclusive: 29.1 µM [activator, single point]. For `Cn1c(CN2CCCCC2)nc2cc(NC(=O)c3ccc(F)cc3)ccc21`, the Potency was inconclusive: 1.46 µM [inhibitor, partial curve, poor fit]. For `Cc1ccc(NC(=O)c2ccc(Cl)c(S(=O)(=O)NCC3CCCO3)c2)c(O)c1` (centres undefined), the Potency was “inactive”. In the case of `CCOC(=O)C1(Cc2ccccc2)NC(c2ccccc2F)C2C(=O)N(CC)C(=O)C21` (centres undefined), the Potency is reported as “inactive”. With `COc1ccc(-n2c(O)c(/C(C)=N/Nc3ccccc3)c(=O)[nH]c2=O)cc1` the Potency was inconclusive: 14.1 µM [inhibitor, partial curve, poor fit]. With `CC(CNc1ccccc1O)C(=O)O` (centres undefined) the Potency was “inactive”. For `COc1cc(N(C)C)c([N+](=O)[O-])cc1C(=O)N1CCOCC1`, the Potency was “inactive”. In the case of `CC(C(=O)Nc1cccc([N+](=O)[O-])c1)n1nnc2ccccc21` (centres undefined), the Potency is reported as inconclusive: 11.6 µM [activator, partial curve, poor fit]. For `CCCn1c(C(O)c2ccc(OC)cc2)nc2ccccc21` (centres undefined), the Potency was “inactive”. In the case of `C=CCNC(=O)c1ccc(-c2nc(-c3ccccc3)cs2)cc1`, the Potency is reported as inconclusive: 6.51 µM [activator, single point]. For `O=C(O)CCc1ccc(-c2ccccc2)n1CC(=O)Nc1ccccc1C(F)(F)F`, the Potency was “inactive”. For `O=C(Nc1ccccc1Br)C1CC(=O)N(c2ccc3c4c(cccc24)CC3)C1` (centres undefined), the Potency was inconclusive: 29.1 µM [inhibitor, single point]. In the case of `Cc1cccc(N2CCCn3c2nc2c3c(=O)n(CCN3CCOCC3)c(=O)n2C)c1`, the Potency is reported as inconclusive: 4.61 µM [inhibitor, partial curve, poor fit].
% is scaled to controls: 0 for no effect and ±100 for the full control effect; potency is read from the fitted curve at half-maximal effect.
